# Results taken from the supplement of paper PMC8728848.
# The other results are listed elsewhere or left out.
# Experiments:
# Test in all cases: glycan array binding signal (z-score within array); higher = stronger binding
# Conditions in all cases: glycan notation: IUPAC condensed, linker removed
# [1] = molecular target: Neu5Ac(a2-3)Gal6S(b1-4)[Fuc(a1-3)]GlcNAc
# Procedure, shortened: (§1)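 Columns mapping to the same glycan were averaged after glycan names were converted to IUPAC-condensed notation. The data come from 3228 arrays in the Consortium for Functional Glycomics database, limited to those with an available protein sequence. Binding is reported as a within-array Z-score averaged across arrays of one protein sequence and across linkers.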
# Neu5Ac(a2-3)GalNAc = molecular target: Neu5Ac(a2-3)GalNAc
# Procedure, shortened: as §1
# [2] = molecular target: Neu5Ac(a2-3)GalNAc(b1-4)GlcNAc
# Procedure, shortened: as §1
# [3] = molecular target: Neu5Ac(a2-3)[GalNAc(b1-4)]Gal(b1-4)Glc
# Procedure, shortened: as §1
# [4] = molecular target: Neu5Ac(a2-3)[GalNAc(b1-4)]Gal(b1-4)GlcNAc
# Procedure, shortened: as §1
# [5] = molecular target: Neu5Ac(a2-3)[GalNAc(b1-4)]Gal(b1-4)GlcNAc(b1-3)GalNAc
# Procedure, shortened: as §1
# [6] = molecular target: Neu5Ac(a2-3)[Neu5Ac(a2-6)]GalNAc
# Procedure, shortened: as §1
# Neu5Ac(a2-6)Gal = molecular target: Neu5Ac(a2-6)Gal
# Procedure, shortened: as §1
# [7] = molecular target: Neu5Ac(a2-6)Gal(b1-3)GlcNAc(b1-3)[Gal(b1-4)GlcNAc(b1-6)]Gal(b1-4)Glc
# Procedure, shortened: as §1
# Neu5Ac(a2-6)Gal(b1-4)Glc = molecular target: Neu5Ac(a2-6)Gal(b1-4)Glc
# Procedure, shortened: as §1
# [8] = molecular target: Neu5Ac(a2-6)Gal(b1-4)GlcNAc
# Procedure, shortened: as §1
# [9] = molecular target: Neu5Ac(a2-6)Gal(b1-4)GlcNAc(b1-2)Man
# Procedure, shortened: as §1
# [10] = molecular target: Neu5Ac(a2-6)Gal(b1-4)GlcNAc(b1-2)Man(a1-3)Man(b1-4)GlcNAc(b1-4)GlcNAc
# Procedure, shortened: as §1
# [11] = molecular target: Neu5Ac(a2-6)Gal(b1-4)GlcNAc(b1-2)Man(a1-3)[Gal(b1-4)GlcNAc(b1-2)Man(a1-6)]Man(b1-4)GlcNAc(b1-4)GlcNAc
# Procedure, shortened: as §1
# [12] = molecular target: Neu5Ac(a2-6)Gal(b1-4)GlcNAc(b1-2)Man(a1-3)[GlcNAc(b1-2)Man(a1-6)]Man(b1-4)GlcNAc(b1-4)GlcNAc
# Procedure, shortened: as §1
# [13] = molecular target: Neu5Ac(a2-6)Gal(b1-4)GlcNAc(b1-2)Man(a1-3)[GlcNAc(b1-4)][Neu5Ac(a2-6)Gal(b1-4)GlcNAc(b1-2)Man(a1-6)]Man(b1-4)GlcNAc(b1-4)GlcNAc
# Procedure, shortened: as §1
# [14] = molecular target: Neu5Ac(a2-6)Gal(b1-4)GlcNAc(b1-2)Man(a1-3)[Man(a1-6)]Man(b1-4)GlcNAc(b1-4)GlcNAc
# Procedure, shortened: as §1
# [15] = molecular target: Neu5Ac(a2-6)Gal(b1-4)GlcNAc(b1-2)Man(a1-3)[Neu5Ac(a2-3)Gal(b1-4)GlcNAc(b1-2)Man(a1-6)]Man(b1-4)GlcNAc(b1-4)GlcNAc
# Procedure, shortened: as §1
# [16] = molecular target: Neu5Ac(a2-6)Gal(b1-4)GlcNAc(b1-2)Man(a1-3)[Neu5Ac(a2-6)Gal(b1-4)GlcNAc(b1-2)Man(a1-6)]Man(b1-4)GlcNAc(b1-4)GlcNAc
# Procedure, shortened: as §1
# [17] = molecular target: Neu5Ac(a2-6)Gal(b1-4)GlcNAc(b1-2)Man(a1-3)[Neu5Ac(a2-6)Gal(b1-4)GlcNAc(b1-2)Man(a1-6)]Man(b1-4)GlcNAc(b1-4)[Fuc(a1-6)]GlcNAc
# Procedure, shortened: as §1
# [18] = molecular target: Neu5Ac(a2-6)Gal(b1-4)GlcNAc(b1-2)Man(a1-6)Man(b1-4)GlcNAc(b1-4)GlcNAc
# Procedure, shortened: as §1
# [19] = molecular target: Neu5Ac(a2-6)Gal(b1-4)GlcNAc(b1-2)Man(a1-6)[Gal(b1-4)GlcNAc(b1-2)Man(a1-3)]Man(b1-4)GlcNAc(b1-4)GlcNAc
# Procedure, shortened: as §1
# [20] = molecular target: Neu5Ac(a2-6)Gal(b1-4)GlcNAc(b1-2)Man(a1-6)[GlcNAc(b1-2)Man(a1-3)]Man(b1-4)GlcNAc(b1-4)GlcNAc
# Procedure, shortened: as §1
# [21] = molecular target: Neu5Ac(a2-6)Gal(b1-4)GlcNAc(b1-2)Man(a1-6)[Man(a1-3)]Man(b1-4)GlcNAc(b1-4)GlcNAc
# Procedure, shortened: as §1
# [22] = molecular target: Neu5Ac(a2-6)Gal(b1-4)GlcNAc(b1-2)[Neu5Ac(a2-6)Gal(b1-4)GlcNAc(b1-4)]Man(a1-3)[GlcNAc(b1-4)][Neu5Ac(a2-6)Gal(b1-4)GlcNAc(b1-2)[Neu5Ac(a2-6)Gal(b1-4)GlcNAc(b1-6)]Man(a1-6)]Man(b1-4)GlcNAc(b1-4)GlcNAc
# Procedure, shortened: as §1
# [23] = molecular target: Neu5Ac(a2-6)Gal(b1-4)GlcNAc(b1-2)[Neu5Ac(a2-6)Gal(b1-4)GlcNAc(b1-4)]Man(a1-3)[GlcNAc(b1-4)][Neu5Ac(a2-6)Gal(b1-4)GlcNAc(b1-4)Man(a1-6)]Man(b1-4)GlcNAc(b1-4)GlcNAc
# Procedure, shortened: as §1
# [24] = molecular target: Neu5Ac(a2-6)Gal(b1-4)GlcNAc(b1-2)[Neu5Ac(a2-6)Gal(b1-4)GlcNAc(b1-6)]Man(a1-6)[Neu5Ac(a2-6)Gal(b1-4)GlcNAc(b1-2)Man(a1-3)][GlcNAc(b1-4)]Man(b1-4)GlcNAc(b1-4)GlcNAc
# Procedure, shortened: as §1
# [25] = molecular target: Neu5Ac(a2-6)Gal(b1-4)GlcNAc(b1-3)Gal(b1-3)GlcNAc
# Procedure, shortened: as §1
# [26] = molecular target: Neu5Ac(a2-6)Gal(b1-4)GlcNAc(b1-3)Gal(b1-4)GlcNAc
# Procedure, shortened: as §1
# [27] = molecular target: Neu5Ac(a2-6)Gal(b1-4)GlcNAc(b1-3)Gal(b1-4)GlcNAc(b1-2)Man(a1-3)[Neu5Ac(a2-6)Gal(b1-4)GlcNAc(b1-3)Gal(b1-4)GlcNAc(b1-2)Man(a1-6)]GalNAc
# Procedure, shortened: as §1
# [28] = molecular target: Neu5Ac(a2-6)Gal(b1-4)GlcNAc(b1-3)Gal(b1-4)GlcNAc(b1-3)Gal(b1-4)GlcNAc
# Procedure, shortened: as §1
# [29] = molecular target: Neu5Ac(a2-6)Gal(b1-4)GlcNAc(b1-3)Gal(b1-4)GlcNAc(b1-3)Gal(b1-4)GlcNAc(b1-2)Man(a1-3)[Neu5Ac(a2-6)Gal(b1-4)GlcNAc(b1-3)Gal(b1-4)GlcNAc(b1-3)Gal(b1-4)GlcNAc(b1-2)Man(a1-6)]GalNAc
# Procedure, shortened: as §1
# [30] = molecular target: Neu5Ac(a2-6)Gal(b1-4)GlcNAc(b1-3)Gal(b1-4)GlcNAc(b1-3)GalNAc
# Procedure, shortened: as §1
# [31] = molecular target: Neu5Ac(a2-6)Gal(b1-4)GlcNAc(b1-3)Gal(b1-4)GlcNAc(b1-3)[Neu5Ac(a2-6)Gal(b1-4)GlcNAc(b1-3)Gal(b1-4)GlcNAc(b1-6)]GalNAc
# Procedure, shortened: as §1
# [32] = molecular target: Neu5Ac(a2-6)Gal(b1-4)GlcNAc(b1-3)Gal(b1-4)GlcNAc(b1-6)[Gal(b1-3)]GalNAc
# Procedure, shortened: as §1
# [33] = molecular target: Neu5Ac(a2-6)Gal(b1-4)GlcNAc(b1-3)Gal(b1-4)[Fuc(a1-3)]GlcNAc(b1-3)Gal(b1-4)[Fuc(a1-3)]GlcNAc
# Procedure, shortened: as §1
# [34] = molecular target: Neu5Ac(a2-6)Gal(b1-4)GlcNAc(b1-3)GalNAc
# Procedure, shortened: as §1
binder,measurement,setting,value
"MtEccB1 (Mycobacterium tuberculosis H37Rv), O69734 (protein) MGLRLTTKVQVSGWRFLLRRLEHAIVRRDTRMFDDPLQFYSRSIALGIVVAVLILAGAALLAYFKPQGKLGGTSLFTDRATNQLYVLLSGQLHPVYNLTSARLVLGNPANPATVKSSELSKLPMGQTVGIPGAPYATPVSAGSTSIWTLCDTVARADSTSPVVQTAVIAMPLEIDASIDPLQSHEAVLVSYQGETWIVTTKGRHAIDLTDRALTSSMGIPVTARPTPISEGMFNALPDMGPWQLPPIPAAGAPNSLGLPDDLVIGSVFQIHTDKGPQYYVVLPDGIAQVNATTAAALRATQAHGLVAPPAMVPSLVVRIAERVYPSPLPDEPLKIVSRPQDPALCWSWQRSAGDQSPQSTVLSGRHLPISPSAMNMGIKQIHGTATVYLDGGKFVALQSPDPRYTESMYYIDPQGVRYGVPNAETAKSLGLSSPQNAPWEIVRLLVDGPVLSKDAALLEHDTLPADPSPRKVPAGASGAP",glycan array binding signal (z-score),[1],0.49
same,glycan array binding signal (z-score),Neu5Ac(a2-3)GalNAc,-0.198
same,glycan array binding signal (z-score),[2],0.981
same,glycan array binding signal (z-score),[3],1.1
same,glycan array binding signal (z-score),[4],0.517
same,glycan array binding signal (z-score),[5],-1.39
same,glycan array binding signal (z-score),[6],-1.42
same,glycan array binding signal (z-score),Neu5Ac(a2-6)Gal,0.809
same,glycan array binding signal (z-score),[7],1.06
same,glycan array binding signal (z-score),Neu5Ac(a2-6)Gal(b1-4)Glc,-0.932
same,glycan array binding signal (z-score),[8],-0.95
same,glycan array binding signal (z-score),[9],0.17
same,glycan array binding signal (z-score),[10],0.291
same,glycan array binding signal (z-score),[11],0.49
same,glycan array binding signal (z-score),[12],-0.013
same,glycan array binding signal (z-score),[13],-0.564
same,glycan array binding signal (z-score),[14],0.855
same,glycan array binding signal (z-score),[15],-1.03
same,glycan array binding signal (z-score),[16],0.893
same,glycan array binding signal (z-score),[17],1.6
same,glycan array binding signal (z-score),[18],0.269
same,glycan array binding signal (z-score),[19],0.225
same,glycan array binding signal (z-score),[20],-0.324
same,glycan array binding signal (z-score),[21],0.711
same,glycan array binding signal (z-score),[22],0.299
same,glycan array binding signal (z-score),[23],-0.214
same,glycan array binding signal (z-score),[24],-0.566
same,glycan array binding signal (z-score),[25],0.815
same,glycan array binding signal (z-score),[26],-0.021
same,glycan array binding signal (z-score),[27],-1.75
same,glycan array binding signal (z-score),[28],0.589
same,glycan array binding signal (z-score),[29],2.47
same,glycan array binding signal (z-score),[30],0.326
same,glycan array binding signal (z-score),[31],-0.257
same,glycan array binding signal (z-score),[32],-1.25
same,glycan array binding signal (z-score),[33],0.844
same,glycan array binding signal (z-score),[34],-1.57

# Shown as tab-separated lines: part of the list above.
binder	measurement	setting	value
MtEccB1 (Mycobacterium tuberculosis H37Rv), O69734 (protein) MGLRLTTKVQVSGWRFLLRRLEHAIVRRDTRMFDDPLQFYSRSIALGIVVAVLILAGAALLAYFKPQGKLGGTSLFTDRATNQLYVLLSGQLHPVYNLTSARLVLGNPANPATVKSSELSKLPMGQTVGIPGAPYATPVSAGSTSIWTLCDTVARADSTSPVVQTAVIAMPLEIDASIDPLQSHEAVLVSYQGETWIVTTKGRHAIDLTDRALTSSMGIPVTARPTPISEGMFNALPDMGPWQLPPIPAAGAPNSLGLPDDLVIGSVFQIHTDKGPQYYVVLPDGIAQVNATTAAALRATQAHGLVAPPAMVPSLVVRIAERVYPSPLPDEPLKIVSRPQDPALCWSWQRSAGDQSPQSTVLSGRHLPISPSAMNMGIKQIHGTATVYLDGGKFVALQSPDPRYTESMYYIDPQGVRYGVPNAETAKSLGLSSPQNAPWEIVRLLVDGPVLSKDAALLEHDTLPADPSPRKVPAGASGAP	glycan array binding signal (z-score)	[31]	-0.257
same	glycan array binding signal (z-score)	[33]	0.844
